Source: publication PMC3432625
These are yes or no findings as the source states them, for the method shown. Binding seen in cells or lysates may run through a third protein. Some entries that bind do so weakly or less than the wild type. Where a sequence is shown, tags or fusion partners need not be part of it.

Biological target: T1, α-DG-K500-myc (myc-tagged α-dystroglycan subunit from the construct DG-K500-myc^GFP) (murine), Q62165
T1 chain: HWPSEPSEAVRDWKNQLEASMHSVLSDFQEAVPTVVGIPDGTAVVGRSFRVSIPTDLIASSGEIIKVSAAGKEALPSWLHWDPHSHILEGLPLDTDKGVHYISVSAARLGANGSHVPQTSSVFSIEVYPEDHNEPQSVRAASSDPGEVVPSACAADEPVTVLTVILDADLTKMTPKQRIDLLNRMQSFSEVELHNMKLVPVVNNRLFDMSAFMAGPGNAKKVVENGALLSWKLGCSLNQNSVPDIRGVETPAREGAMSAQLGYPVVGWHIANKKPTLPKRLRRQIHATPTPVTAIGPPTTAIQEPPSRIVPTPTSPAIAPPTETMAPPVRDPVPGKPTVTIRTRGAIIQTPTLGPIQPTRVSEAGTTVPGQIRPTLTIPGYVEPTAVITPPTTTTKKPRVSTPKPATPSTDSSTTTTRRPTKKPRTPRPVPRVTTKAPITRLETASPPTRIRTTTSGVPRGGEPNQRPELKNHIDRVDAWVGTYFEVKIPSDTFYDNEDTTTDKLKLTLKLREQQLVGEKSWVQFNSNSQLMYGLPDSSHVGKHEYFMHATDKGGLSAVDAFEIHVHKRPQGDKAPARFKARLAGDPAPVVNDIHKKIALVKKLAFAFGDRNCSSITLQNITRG
Assay: co-IP; magnetic beads conjugated with an anti-myc antibody (µMACS Epitope Tag Protein Isolation Kit), 1 ml total protein extract (PBS, 1 % Triton X-100) of 293-Ebna cells transfected with DG-K500-myc^GFP, 30 min at room temperature; Western blot with anti β-DG antibody
Settings: remark: other sources report otherwise

binding: binds
B1: β-DG-GFP (β-dystroglycan subunit fused to GFP, from the construct DG-K500-myc^GFP), Q62165 652-893 (protein)
chain: SIVVEWTNNTLPLEPCPKEQIIGLSRRIADENGKPRPAFSNALEPDFKALSIAVTGSGSCRHLQFIPVAPPSPGSSAAPATEVPDRDPEKSSEDDVYLHTVIPAVVVAAILLIAGIIAMICYRKKRKGKLTLEDQATFIKKGVPIIFADELDDSKPPPSSSMPLILQEEKAPLPPPEYPNQSMPETTPLNQDTVGEYTPLRDEDPNAPPYQPPPPFTAPMEGKGSRPKNMTPYRSPPPYVPP
modifications: here or on the partner: fully glycosylated (120 kDa band)
